{
  "source": "patent US6727277B1",
  "about": "“Compounds affecting cholesterol absorption” (Kansas State University Research Foundation, priority 2002, dated 2004)",
  "system": "lymphatic absorption of cholesterol",
  "experiment": "Lymphatic absorption of 14C-cholesterol in lymph-cannulated rats infused with lipid emulsion",
  "format": "in vivo, rat",
  "procedure": "Ten male Sprague-Dawley rats (Harlan Sprague Dawley, Inc., Indianapolis, Ind.) weighing 274.3±7.8 grams were housed individually in plastic cages in an environmentally controlled room of illumination (12:12-h light/dark cycle with the dark period from 0330 to 1530), humidity (60-70%), and temperature (22-25° C.) throughout the study. Rats had free access to deionized water and a nutritionally adequate diet (Table 1) containing soybean oil as the fat source and egg white as the protein source. The diet was formulated according to AIN-93G recommendations (In: Trace Elements in Laboratory Rodents (Watson, R. R., ed.), pp. 3-37. CRC Press, Boca Raton, Fla.). […]\nDuring the duodenal infusion of lipid emulsion, lymph samples were collected hourly in preweighed ice-chilled centrifuge tubes containing 4 mg Na2-EDTA and 30 μg n-propyl gallate (Sigma Chemical, St. Louis, Mo.) as antioxidants. A portion of each lymph sample (100 μL) was mixed with scintillation liquid (ScintiVerse; Fisher Scientific, Fair Lawn, N.J.) and counted by scintillation spectrometry (Beckman LS-6500; Beckman Instruments, Fullerton, Calif.). The total ^14C-radioactivity appearing in hourly lymph volume (the hourly rates of ^14C-CH absorption) was expressed as a percentage of the total radioactivity infused (% dose). […]",
  "data": [
    {"compound": "CC1(C)CCC[C@]2(C)C3=Cc4c(cc(O)c(O)c4Cl)O[C@]3(C)CC[C@@H]12", "note": "[Compound 1, (4aS,6aR,12bS)-2H-11-Chloro-1,3,4,4a,5,6,6a,12b-octahydro-4,4,6a,12b-tetramethyl-benzo[a]xanthene-9,10-diol]", "values": [
      {"measurement": "lymph volume compared to control", "setting": "rats infused for eight hours", "result": "not significantly different"},
      {"measurement": "Lymph volume", "setting": "rats, 8 h duodenal infusion of lipid emulsion with 114.9 μmol (41.9 mg) compound 1, means ± SD, n = 5", "result": "16.59 ± 4.20", "unit": "mL/8 h"}
    ]}
  ]
}
